Screen size: about 400,000 compounds; about 13,000 (3.2%) were called active. The shares of active, inactive and inconclusive entries below differ from those in the screen. Calls come from the whole dose curve; as a rule, active = well fitted cell-killing curve with a large enough effect; inconclusive = small, poorly fitted or top-dose-only effect, or effect the other way; inactive = flat fitted curve, though single readings scatter. Potencies of inconclusive entries are doubtful fits and often do not repeat.
Experiment: qHTS assay for MDR1-selective chemotherapeutics: Primary screen using the drug-selected MDR subline cells KB-V1; note: nearly all actives have a fitted effect of over 60% in size
Conditions: KB-V1 MDR cells viability, CellTiter-Glo, 72 h; activity change, negative = cytotoxicity: at 46.1 µM (top of the series)
In short: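 Following 72 h at 37 degrees C with compound, KB-V1 cell viability was read by CellTiter-Glo luminescence, medium being phenol-red-free DMEM plus 10% FBS; concentration-response parameters came from normalized, curve-fitted qHTS data.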
% is set by controls: 0 for no effect and ±100 for the full control effect; potency is the fitted concentration of half-maximal effect.

SMILES	Potency	activity change, negative = cytotoxicity
COc1ccc(/C=N/OCC(=O)NC(c2ccccc2)c2ccccc2)cc1OC	active: 2.31 µM	
Cc1nnc(-c2cnn(C)c2N)n1Cc1ccc2c(c1)OCO2	inconclusive: 16.4 µM [rising, single point]	
Nc1c(C(=O)Nc2cccc(F)c2)nnn1-c1cccc(C(F)(F)F)c1	inconclusive: 29.1 µM [rising, single point]	
CCn1c(=O)c(-c2nc3ccccc3[nH]2)c(O)c2ccccc21	inconclusive: 2.59 µM [cytotoxic, partial curve, poor fit]	
Cn1c(-c2ccc3c(c2)OCO3)cnc1NCc1ccccc1	active: 13 µM	
O=C(NCc1cccnc1)c1ccc(COc2cccc3ccccc23)o1	inconclusive: 9.2 µM [cytotoxic, partial curve]	
CCN(CC)Cc1cc(C(C)=O)ccc1OCC(C)C	inconclusive: 10.3 µM [cytotoxic, partial curve, poor fit]	
Cc1nc2c(c3c1[nH]c1ccccc13)C(O)CC(C)(C)C2 (centres undefined)	active: 16.4 µM	
CC1CN(C(=O)COC(=O)Cc2c(F)cccc2Cl)CC(C)O1 (centres undefined)	inconclusive: 0.206 µM [rising, full curve]	
CCC1(C)Cc2c(sc3nnn(Cc4ccccc4Cl)c(=O)c23)CO1 (centres undefined)	active: 20.6 µM	
CCN(CC)C(=O)Cn1c(=O)c2ccccc2n2c(=S)sc(-c3cccc(C)c3)c12	active: 2.91 µM	
Cc1ccc(S(=O)(=O)Nc2ccccc2OC(C(=O)OC(C)(C)C)C(=O)OC(C)(C)C)cc1	inconclusive: 14.6 µM [cytotoxic, partial curve]	
CCN(CC)CCNc1ccnc2cc(Cl)ccc12	inconclusive: 20.6 µM [cytotoxic, single point]	
O=C(CSc1nnc(CNc2ccc(F)cc2)o1)c1ccccc1	inactive	
CC(=O)Nc1ccc2nc(SCC(=O)O)sc2c1	inconclusive: 8.2 µM [rising, partial curve]	
COc1ccc(OCCCC(=O)Nc2cccc(SC)c2)cc1	inconclusive: 25.9 µM [cytotoxic, single point]	
COc1ccc(NC(=O)COc2ccc(N(C)S(=O)(=O)c3ccc(Cl)cc3)cc2)cc1OC	active: 0.92 µM	
COc1ccc(OC)c(-c2csc(NC(=O)c3ccc4c(c3)OCO4)n2)c1	inconclusive: 20.6 µM [cytotoxic, partial curve]	
CCCOC(=O)c1c(NC(=O)CCCn2nc([N+](=O)[O-])c(Cl)c2C)sc(C(=O)OC)c1C	inconclusive: 0.206 µM [cytotoxic, full curve, poor fit]	
CN(C)CC(C)(C)CNC(=S)Nc1ccc(S(=O)(=O)N2CCOCC2)cc1		inconclusive: -37.2%
COc1ccc(/C=N/NC(=O)CCC(=O)Nc2ccccc2)cc1OC	inactive	
CN1CCC(N2CCN(C3CN(C4CCCC4)S(=O)(=O)C3)CC2)CC1 (centres undefined)	inconclusive: 29.1 µM [cytotoxic, single point]	

One compound at a time, from the list above.
COc1ccc(NC(=O)COc2ccc(N(C)S(=O)(=O)c3ccc(Cl)cc3)cc2)cc1OC reads Potency: active: 0.92 µM
CCN(CC)C(=O)Cn1c(=O)c2ccccc2n2c(=S)sc(-c3cccc(C)c3)c12 reads Potency: active: 2.91 µM

Continued:

SMILES	Potency	activity change, negative = cytotoxicity
CCOc1ccc(N2CC(c3nc4ccccc4n3CCCCOc3ccc(OC)cc3)CC2=O)cc1 (centres undefined)	inconclusive: 29.1 µM [cytotoxic, single point]	
Cc1cc(=O)n2nc(N3CCC(C(=O)Nc4c(C)cccc4C)CC3)sc2n1	inactive	
CCC(=O)N1CCN(c2ccc(NC(=O)c3cc4ccccc4o3)cc2)CC1	inconclusive: 18.4 µM [cytotoxic, single point]	
CCOC(=O)[C@H](CCc1ccccc1)N[C@@H](C)C(=O)N1[C@H](C(=O)O)C[C@@H]2CCC[C@@H]21	inconclusive: 20.6 µM [cytotoxic, partial curve, poor fit]	
CCCCCCOc1ccc(N2C(=O)CC(SC(=NCC)NCC)C2=O)cc1 (centres undefined)	inactive	
COC(=O)c1sccc1S(=O)(=O)Nc1ccc(N2CCCCC2)cc1	inconclusive: 20.6 µM [cytotoxic, partial curve, poor fit]	
N#Cc1ccc(N2C(=O)[C@@H]3C(C(=O)c4ccc5ccccc5n4)=NN[C@@H]3C2=O)cc1	inactive	
NCC(c1ccccc1)(c1ccccc1)c1ccccc1	active: 20.6 µM	
COc1cccc(C2c3c(C)nn(-c4ccc([N+](=O)[O-])cc4)c3N=C3C(=O)Nc4ccccc4N32)c1 (centres undefined)	inactive	
COc1ccccc1-c1nn(-c2ccccc2)cc1C(=O)NCC(c1ccco1)N1CCCC1 (centres undefined)	inactive	
Cc1cc(C)c(S(=O)(=O)N2CCN(C(=O)c3cc4ccccc4o3)CC2)c(C)c1	inconclusive: 7.31 µM [cytotoxic, partial curve]	
C=CCn1c(SCC(=O)NC)nc2sc3c(c2c1=O)CCC3	active: 2.06 µM	
Cc1c(C(=O)O)cnc2cc(-c3ccc(Cl)cc3)nn12	inconclusive: 29.1 µM [rising, single point]	
CC1Cc2ccccc2N1C(=S)NC1CCCC1 (centres undefined)	inactive	
N#CCCN1CCN(C(=S)c2ccc(-c3cccc(Cl)c3)o2)CC1	inconclusive: 18.4 µM [cytotoxic, partial curve]	
Clc1ccc(/C=C/c2ccc3ccccc3n2)c(Cl)c1	inconclusive: 16.4 µM [rising, partial curve, poor fit]	
COc1ccc(OC)c(CN2CCN(C(=O)c3cccc(S(=O)(=O)N(C)c4ccccc4)c3)CC2)c1	inconclusive: 13 µM [cytotoxic, partial curve]	
COc1ccc(CNC(=O)CN2C(=O)CSc3ccc(S(=O)(=O)N(C)C)cc32)cc1	inactive	
O=C(NCc1ccco1)C(c1cccs1)N(C(=O)C1COc2ccccc2O1)c1cccc(O)c1 (centres undefined)	inconclusive: 23.1 µM [cytotoxic, single point]	
COc1ccc(N(C)S(=O)(=O)c2cccc(C(=O)NCC(c3ccco3)N3CCCC3)c2)cc1 (centres undefined)	inconclusive: 3.26 µM [cytotoxic, full curve]	
COc1ccc(/C=N/Nc2ncnc3sc4c(c23)CCCC4)cc1O	inconclusive: 25.9 µM [cytotoxic, single point]	
O=C(COc1ccc(-n2cnnn2)cc1)NC1CCCCC1	inconclusive: 29.1 µM [rising, single point]	

Reference: PubChem BioAssay AID1347076 (National Center for Advancing Translational Sciences (NCATS), 2019)
